These are yes or no findings as the source states them, for the method shown. Binding seen in cells or lysates may run through a third protein. Some binding calls cover weakened binding; strength is not graded here.
Molecular target: Flag–MSK1 (mitogen- and stress-activated protein kinase 1, wild type) (UniProt O75582)
Experiment: co-IP; HEK293T cells co-transfected with HA–Snail and Flag–MSK1; lysates (1% Triton X-100, 150 mM NaCl, pH 7.4) immunoprecipitated with anti-Flag or anti-HA, blotted with anti-HA or anti-Flag

Chains of the proteins cited; added tags and fusions are not shown.
UniProt O75582: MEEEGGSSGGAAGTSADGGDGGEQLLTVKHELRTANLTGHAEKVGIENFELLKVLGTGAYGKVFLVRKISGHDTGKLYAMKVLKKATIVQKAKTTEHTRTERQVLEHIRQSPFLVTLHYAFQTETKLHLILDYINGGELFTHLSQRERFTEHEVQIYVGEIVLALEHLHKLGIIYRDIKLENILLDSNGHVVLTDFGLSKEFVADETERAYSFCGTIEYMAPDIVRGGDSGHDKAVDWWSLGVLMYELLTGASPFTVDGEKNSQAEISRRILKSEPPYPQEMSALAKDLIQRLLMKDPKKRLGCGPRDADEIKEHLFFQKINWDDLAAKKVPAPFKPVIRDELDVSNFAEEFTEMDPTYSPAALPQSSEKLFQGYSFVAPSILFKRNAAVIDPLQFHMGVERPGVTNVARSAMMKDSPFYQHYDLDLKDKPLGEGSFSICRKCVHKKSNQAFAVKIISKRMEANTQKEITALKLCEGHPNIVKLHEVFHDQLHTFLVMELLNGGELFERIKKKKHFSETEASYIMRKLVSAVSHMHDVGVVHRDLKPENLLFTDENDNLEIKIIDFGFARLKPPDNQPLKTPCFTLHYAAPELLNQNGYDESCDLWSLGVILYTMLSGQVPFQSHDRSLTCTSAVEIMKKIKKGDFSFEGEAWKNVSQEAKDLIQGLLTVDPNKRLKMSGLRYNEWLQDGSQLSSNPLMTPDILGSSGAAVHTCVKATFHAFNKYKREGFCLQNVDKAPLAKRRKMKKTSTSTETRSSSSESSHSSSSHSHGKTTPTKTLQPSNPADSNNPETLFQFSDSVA
UniProt O95863: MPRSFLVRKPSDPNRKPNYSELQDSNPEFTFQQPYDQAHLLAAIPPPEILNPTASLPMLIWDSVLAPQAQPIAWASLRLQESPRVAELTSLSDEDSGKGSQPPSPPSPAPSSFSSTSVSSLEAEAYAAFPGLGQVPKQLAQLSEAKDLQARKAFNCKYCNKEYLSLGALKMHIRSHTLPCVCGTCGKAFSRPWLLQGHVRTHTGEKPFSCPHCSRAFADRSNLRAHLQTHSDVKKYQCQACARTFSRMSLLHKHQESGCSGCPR

binding: binds
Substance: HA–Snail (from UniProt O95863 1-264)
